Results published in publication PMC3499362.
No constants are given. Whether binding was seen depends on the method and setting. Binding seen in cells or lysates may run through a third protein. Some entries that bind do so weakly or less than the wild type.

The chains behind the UniProt entries cited, without tags or fusion partners.
UniProt Q8CDG1: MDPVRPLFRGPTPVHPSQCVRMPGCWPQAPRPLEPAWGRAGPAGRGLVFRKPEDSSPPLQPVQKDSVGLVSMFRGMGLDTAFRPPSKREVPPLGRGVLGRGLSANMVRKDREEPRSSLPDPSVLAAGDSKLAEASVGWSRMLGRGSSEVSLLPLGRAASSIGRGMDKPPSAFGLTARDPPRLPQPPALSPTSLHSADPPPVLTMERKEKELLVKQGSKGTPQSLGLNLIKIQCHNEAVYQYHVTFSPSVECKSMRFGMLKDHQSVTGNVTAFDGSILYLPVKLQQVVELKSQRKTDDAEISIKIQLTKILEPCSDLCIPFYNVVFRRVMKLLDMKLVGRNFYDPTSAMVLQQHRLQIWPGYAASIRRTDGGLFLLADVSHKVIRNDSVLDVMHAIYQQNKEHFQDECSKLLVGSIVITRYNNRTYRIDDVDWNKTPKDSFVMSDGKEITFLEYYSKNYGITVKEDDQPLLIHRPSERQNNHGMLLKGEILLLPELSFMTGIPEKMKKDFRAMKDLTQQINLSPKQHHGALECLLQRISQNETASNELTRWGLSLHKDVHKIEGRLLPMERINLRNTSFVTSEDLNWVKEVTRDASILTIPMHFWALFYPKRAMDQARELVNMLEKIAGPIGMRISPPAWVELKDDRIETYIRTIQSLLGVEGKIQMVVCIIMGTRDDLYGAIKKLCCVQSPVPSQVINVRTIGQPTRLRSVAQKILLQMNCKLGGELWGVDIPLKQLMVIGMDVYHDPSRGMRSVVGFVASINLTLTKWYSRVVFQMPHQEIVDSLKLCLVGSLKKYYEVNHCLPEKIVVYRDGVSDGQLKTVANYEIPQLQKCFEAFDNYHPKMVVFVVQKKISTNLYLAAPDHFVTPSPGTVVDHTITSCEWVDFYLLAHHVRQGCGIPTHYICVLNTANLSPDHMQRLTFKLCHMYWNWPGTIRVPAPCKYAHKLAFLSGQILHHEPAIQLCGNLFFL

T1: MOV10L1 (mouse (endogenous in testis)) (UniProt Q99MV5)
T1 sequence: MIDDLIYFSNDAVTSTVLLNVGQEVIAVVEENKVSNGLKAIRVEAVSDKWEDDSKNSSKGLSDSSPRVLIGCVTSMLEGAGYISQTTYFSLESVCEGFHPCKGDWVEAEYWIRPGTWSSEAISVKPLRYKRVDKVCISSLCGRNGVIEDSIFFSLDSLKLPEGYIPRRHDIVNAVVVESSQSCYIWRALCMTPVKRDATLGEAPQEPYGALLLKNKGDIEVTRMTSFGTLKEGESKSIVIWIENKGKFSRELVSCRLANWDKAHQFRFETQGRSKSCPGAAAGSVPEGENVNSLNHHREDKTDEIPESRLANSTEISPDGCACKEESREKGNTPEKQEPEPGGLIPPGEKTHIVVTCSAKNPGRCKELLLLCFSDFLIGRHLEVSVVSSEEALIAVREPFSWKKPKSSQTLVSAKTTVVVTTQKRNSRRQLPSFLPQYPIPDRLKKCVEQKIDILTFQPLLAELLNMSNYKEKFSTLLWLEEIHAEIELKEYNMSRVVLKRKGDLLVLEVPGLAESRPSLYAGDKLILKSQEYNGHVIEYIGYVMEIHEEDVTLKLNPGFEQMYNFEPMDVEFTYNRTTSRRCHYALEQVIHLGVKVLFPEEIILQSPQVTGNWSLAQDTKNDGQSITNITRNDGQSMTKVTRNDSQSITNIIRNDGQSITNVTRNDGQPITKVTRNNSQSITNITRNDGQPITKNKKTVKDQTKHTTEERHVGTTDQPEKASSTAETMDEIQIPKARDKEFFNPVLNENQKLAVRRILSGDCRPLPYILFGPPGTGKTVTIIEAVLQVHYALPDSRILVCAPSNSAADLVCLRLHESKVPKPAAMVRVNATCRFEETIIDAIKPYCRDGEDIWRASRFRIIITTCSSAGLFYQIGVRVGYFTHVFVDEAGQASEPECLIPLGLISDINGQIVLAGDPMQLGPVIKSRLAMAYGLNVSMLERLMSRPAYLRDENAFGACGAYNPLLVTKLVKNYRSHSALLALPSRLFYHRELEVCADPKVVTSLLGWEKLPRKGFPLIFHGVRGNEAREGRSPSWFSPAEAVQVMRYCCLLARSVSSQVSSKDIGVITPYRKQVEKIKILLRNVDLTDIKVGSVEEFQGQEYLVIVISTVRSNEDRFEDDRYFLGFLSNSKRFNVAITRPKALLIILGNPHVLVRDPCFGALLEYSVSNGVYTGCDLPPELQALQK


Experiments:
[1] = biological target: MILI (mouse (endogenous in testis)) (UniProt Q8CDG1); assay: co-IP; postnatal day 20 testicular extracts (Mov10l1 fl/- Neurog3-Cre) immunoprecipitated with anti-MILI and anti-MOV10L1 antibodies, Western blot; input 1/50 of the extract used for IP
[2] = biological target: T1, MOV10L1 (mouse (endogenous in testis)); assay: as above

Binder | binding [1] | binding [2]
MOV10L1 (protein, UniProt Q99MV5 1-1187) MIDDLIYFSNDAVTSTVLLNVGQEVIAVVEENKVSNGLKAIRVEAVSDKWEDDSKNSSKGLSDSSPRVLIGCVTSMLEGAGYISQTTYFSLESVCEGFHPCKGDWVEAEYWIRPGTWSSEAISVKPLRYKRVDKVCISSLCGRNGVIEDSIFFSLDSLKLPEGYIPRRHDIVNAVVVESSQSCYIWRALCMTPVKRDATLGEAPQEPYGALLLKNKGDIEVTRMTSFGTLKEGESKSIVIWIENKGKFSRELVSCRLANWDKAHQFRFETQGRSKSCPGAAAGSVPEGENVNSLNHHREDKTDEIPESRLANSTEISPDGCACKEESREKGNTPEKQEPEPGGLIPPGEKTHIVVTCSAKNPGRCKELLLLCFSDFLIGRHLEVSVVSSEEALIAVREPFSWKKPKSSQTLVSAKTTVVVTTQKRNSRRQLPSFLPQYPIPDRLKKCVEQKIDILTFQPLLAELLNMSNYKEKFSTLLWLEEIHAEIELKEYNMSRVVLKRKGDLLVLEVPGLAESRPSLYAGDKLILKSQEYNGHVIEYIGYVMEIHEEDVTLKLNPGFEQMYNFEPMDVEFTYNRTTSRRCHYALEQVIHLGVKVLFPEEIILQSPQVTGNWSLAQDTKNDGQSITNITRNDGQSMTKVTRNDSQSITNIIRNDGQSITNVTRNDGQPITKVTRNNSQSITNITRNDGQPITKNKKTVKDQTKHTTEERHVGTTDQPEKASSTAETMDEIQIPKARDKEFFNPVLNENQKLAVRRILSGDCRPLPYILFGPPGTGKTVTIIEAVLQVHYALPDSRILVCAPSNSAADLVCLRLHESKVPKPAAMVRVNATCRFEETIIDAIKPYCRDGEDIWRASRFRIIITTCSSAGLFYQIGVRVGYFTHVFVDEAGQASEPECLIPLGLISDINGQIVLAGDPMQLGPVIKSRLAMAYGLNVSMLERLMSRPAYLRDENAFGACGAYNPLLVTKLVKNYRSHSALLALPSRLFYHRELEVCADPKVVTSLLGWEKLPRKGFPLIFHGVRGNEAREGRSPSWFSPAEAVQVMRYCCLLARSVSSQVSSKDIGVITPYRKQVEKIKILLRNVDLTDIKVGSVEEFQGQEYLVIVISTVRSNEDRFEDDRYFLGFLSNSKRFNVAITRPKALLIILGNPHVLVRDPCFGALLEYSVSNGVYTGCDLPPELQALQK | binds | 
TDRD1 (protein, UniProt Q99MV1 1-1172) MMPRNNLEASTCKMAEPFNFEKKESKPPPQDPLRSPVAQHNHPTFRLKSPENGNTKNNFLLCEQNKQYLASQEDSSVVSSNPAVVNGEVGGSKGDRKPPPTGNPVSPLSLGNSSPPNQVKTKPSSNVTPEKSKKSHKLFENALSVNNPALFNSLGPPLRSTTCHRCGLFGSLRCSQCKQTYYCSTACQRRDWSSHSTICRPVQQSLNKLEDNKSPFETKAIEVKSEVDCPPGVTKEITAGAERVMFSDLRSLQLKKTMEIKGTVTEFKHPSNFYIQLYSSEVLENMNQLSTSLKETYANVVPEDGYLPVKGEVCVAKYTVDQTWNRAIVQAVDVLQRKAHVLYIDYGNEEMIPIDSVHPLSRGLDLFPPSAIKCCVSGVIPTAGEWSEGCVAAVKALLFEQFCSVKVMDILEEEVLTCAVDLVLQSSGKQLDHVLVEMGYGVKPGEQSSTEQSVDHSALEDVGRVTVESKIVTDRNALIPKVLTLNVGDEFCGVVAHIQTPEDFFCQQLQSGHKLAELQESLSEYCGHVIPRSDFYPTIGDVCCAQFSEDDQWYRASVLAYASEESVLVGYVDYGNFEILSLKRLCPIIPKLLDLPMQALNCVLAGVKPSLGIWTPEAVCVMKEMVQNRMVTVRVVGMLGTRALVELIDKSVAPHVSASKALIDSGFAIKEKDVADKGSSMHTASVPLAIEGPAEALEWTWVEFTVDETVDVVVCMMYSPGEFYCHFLKDDALEKLDDLNQSLADYCAQKPPNGFKAEIGRPCCAFFSGDGNWYRALVKEILPSGNVKVHFVDYGNVEEVTTDQLQAILPQFLLLPFQGMQCWLVDIQPPNKHWTKEATARFQACVVGLKLQARVVEITANGVGVELTDLSTPYPKIISDVLIREQLVLRCGSPQDSLMSRPANQHKQIDSHRVQASPSAEQWKTMELPVNKTIAANVLEIISPALFYAIPSEMSENQEKLCVLAAELLEHCNAQKGQPAYRPRTGDACCAKYTNDDFWYRAIVLETSESDVKVLYADYGNIETLPLSRVQPIPASHLELPFQIIRCSLEGPMELNGSCSQLVMELLRNAMLNQSVVLSVKAISKNVHAVSVEKCSENGMINIAENLVMCGLAENLTSKRKSASTKEIPHSRDCCCTELQKQIEKHEQILLFLLNNPTNQSKFTEMKKLLRS | binds | binds
